In PubChem BioAssay AID1487 (National Center for Advancing Translational Sciences (NCATS), 2009):
The list shows a part of the results. Further columns of the screen follow, without active or inactive calls. Most of these compounds were active or inconclusive in the main read-out, so they are no random draw. The note in brackets gives the kind of curve behind each potency; many fits are weak.

Assay: qHTS Assay for Modulators of Lamin A Splicing
Settings: HeLa LMNA splicing GFP/RFP minigene ratio, 48 h
Summary of the method: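 S3 HeLa cells stably expressing lamin A-EGFP splicing minigene plus DsRed2, 600 cells/well, 48 h compound exposure at 37C. Laser-scanning cytometry; analysed as GFP (500-530 nm)/RFP (575-640 nm) total intensity ratio; 0.5% DMSO vehicle.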

[1] = measured here: RFP viability control channel
[2] = measured here: GFP splicing reporter channel

SMILES	AC50 [1]	AC50 [2]
COC(=O)c1ccc2c(c1)N(Cc1ccccc1F)C(=O)c1ccccc1S2=O (configuration not stated)	35.5 µM [rising, single point]	
Cc1ccc2cc(CCNC(=O)c3cccc([N+](=O)[O-])c3)c(=O)[nH]c2c1	0.316 µM [falling, full curve, poor fit]	10 µM [falling, partial curve]
Cc1ccc2nc(N(Cc3cccnc3)C(=O)C3CCCCC3)sc2c1		0.1 µM [rising, single point]
COc1cc(OC)c(NC(=O)CCn2cnc3onc(-c4ccc(F)cc4)c3c2=O)cc1Cl	0.00447 µM [falling, full curve, poor fit]	
CCOc1ccc(NC2c3ccccc3C(=O)N2Cc2ccco2)cc1 (configuration not stated)	35.5 µM [rising, single point]	31.6 µM [rising, single point]
O=C(Nc1cnn(Cc2ccc(F)cc2)c1)c1noc2c1CCCC2	0.0316 µM [rising, full curve, poor fit]	0.0631 µM [rising, full curve]
COc1ccc(CCCc2nnc(SCC(=O)Nc3nccs3)n2C)cc1C	14.1 µM [rising, single point]	
Cc1nnsc1C(=O)Nc1ccccc1	22.4 µM [falling, partial curve, poor fit]	14.1 µM [falling, partial curve, poor fit]
CCN(CC)c1ccc(/C=N/Nc2nc(C)cc(C)n2)c(O)c1	25.1 µM [rising, partial curve]	
O=C1N/C(=C/c2ccc(N3CCOCC3)o2)C(=O)N1c1cccc(Cl)c1	11.2 µM [rising, partial curve]	0.355 µM [falling, partial curve, poor fit]
Cc1ccc2nc(NC(=O)CNS(=O)(=O)c3ccc(Br)s3)sc2c1	12.6 µM [rising, partial curve]	10 µM [rising, partial curve]
N#Cc1cc2ccccc2nc1SCC(=O)Nc1ccccc1N1CCOCC1	15.8 µM [rising, partial curve]	12.6 µM [rising, partial curve]
COc1ccc(NS(=O)(=O)c2cccc(NC(=O)CCC(=O)c3cccs3)c2)cc1	20 µM [rising, partial curve, poor fit]	3.16 µM [rising, partial curve, poor fit]
COc1ccc(-n2[nH]c(C)cc2=O)cc1	35.5 µM [rising, single point]	

One compound at a time (already shown).
`Cc1nnsc1C(=O)Nc1ccccc1` is listed with AC50 [1]: 22.4 µM [falling, partial curve, poor fit]; AC50 [2]: 14.1 µM [falling, partial curve, poor fit]
`COC(=O)c1ccc2c(c1)N(Cc1ccccc1F)C(=O)c1ccccc1S2=O` (configuration not stated) is listed with AC50 [1]: 35.5 µM [rising, single point]
